Here are results for 27 molecules from PubChem BioAssay AID328 (DTP/NCI, 2004).

For this test, the system named is BDF1 mice, P388 leukemia ip, median survival T/C. The test is described as follows: NCI In Vivo Anticancer Drug Screen. Data for tumor model P388 Leukemia (intraperitoneal) in B6D2F1 (BDF1) mice. To be noted: T/C endpoint: median survival time, higher T/C = longer survival. The essentials:
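In tumour-bearing mice, survival after compound treatment is set against the vehicle group and given as a quotient.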

The mark [1] stands for this setting: dose: 50.0 mg/kg/injection, schedule: Q01DX010 (ip), vehicle: saline.
Setting [2] is: dose: 100.0 mg/kg/injection, schedule: Q01DX010 (ip), vehicle: saline.
The mark [3] stands for this setting: dose: 200.0 mg/kg/injection, schedule: Q01DX010 (ip), vehicle: saline.
Setting [4] is: dose: 400.0 mg/kg/injection, schedule: Q01DX009 (ip), vehicle: saline with Tween-80.
Where [5] appears, read: dose: 200.0 mg/kg/injection, schedule: Q01DX009 (ip), vehicle: saline with Tween-80.
[6] abbreviates: dose: 200.0 mg/kg/injection, schedule: Q01DX010 (ip), vehicle: carboxymethylcellulose (CMC).
The mark [7] stands for this setting: dose: 400.0 mg/kg/injection, schedule: Q01DX010 (ip), vehicle: carboxymethylcellulose (CMC).
[8] abbreviates: dose: 400.0 mg/kg/injection, schedule: Q01DX009 (ip), vehicle: Klucel (hydroxypropylcellulose) (HPC).
Setting [9] is: dose: 100.0 mg/kg/injection, schedule: Q01DX009 (ip), vehicle: Klucel (hydroxypropylcellulose) (HPC).
The mark [10] stands for this setting: dose: 100.0 mg/kg/injection, schedule: Q01DX009 (ip), vehicle: saline with Tween-80.
Where [11] appears, read: dose: 200.0 mg/kg/injection, schedule: Q01DX009 (ip), vehicle: Klucel (hydroxypropylcellulose) (HPC).
[12] abbreviates: dose: 400.0 mg/kg/injection, schedule: Q04DX003 (ip), vehicle: Klucel (hydroxypropylcellulose) (HPC).

Molecules are shown by their SMILES. The list shows only some results of the screen, not a fair sample: it gathers tests that were run many times, whatever their T/C, doses with no T/C, and many T/C values between a quarter and a half above the control. Other doses and runs of a compound stand elsewhere. T/C gives the treated animals as a percentage of the vehicle group. Some doses have a count of surviving animals in place of a T/C: the source holds a T/C of zero for them, seemingly a mark for toxic or unscored doses. Some doses without a T/C left all or most animals alive at the check, yet need not have been tolerated: survival well below the control is almost never listed, so the zero probably covers shortened survival too. Survivors were counted at the toxicity check, usually on the fifth day, unless a day is given; later deaths do not show. Schedules are NCI's codes, taken here to give the interval after Q, in days (D) or hours (H), and the number of doses after X. For survival time, this PubChem deposit counts one and a half times the control or more as active, and values a quarter to a half above the control carry no call in these data; other NCI protocols may use other cut-offs.

Turning to `O=C1C(CO)=C[C@@H](O)[C@H]2O[C@@H]12`, the T/C by setting is: (dose: 3.1 mg/kg/injection, schedule: Q01DX001 (ip), vehicle: saline) 135 % of control; (dose: 48.0 mg/kg/injection, schedule: Q01DX010 (ip), vehicle: saline) 138 % of control. Besides, the survivor count reads like this: under setting [1], 1 of 6; under setting [2], 0 of 6; under setting [3], 0 of 6; (dose: 400.0 mg/kg/injection, schedule: Q01DX010 (ip), vehicle: saline) 0 of 6.

Consider `CCOC(=O)CCCN(c1sc(C)c(-c2ccccc2)c1C(=O)OCC)S(=O)(=O)c1ccc(C)cc1`, for which the survivor count under setting [4] was 4 of 6.

As for `CCCOP(=S)(N1CC1(C)C)N1CC1(C)C` (centres undefined), the T/C (dose: 50.0 mg/kg/injection, schedule: Q01DX009 (ip), vehicle: saline with Tween-80) is 145 % of control. Moreover, the survivor count by setting is: (dose: 150.0 mg/kg/injection, schedule: Q01DX009 (ip), vehicle: saline with Tween-80) 3 of 6; under setting [5], 1 of 6; (dose: 400.0 mg/kg/injection, schedule: Q04DX003 (ip), vehicle: saline with Tween-80) 0 of 6.

With `O=CC(S)CO` (centres undefined), the T/C reads like this: (dose: 25.0 mg/kg/injection, schedule: Q01DX010 (ip), vehicle: saline) 133 % of control; under setting [1], 125 % of control; under setting [2], 129 % of control; under setting [6], 133 % of control; under setting [3], 133 % of control. Further, under setting [7], the survivor count is recorded as 0 of 6.

On to `CCN1c2ccccc2CC(CCN(C)Cc2ccccc2)(C(N)=O)c2ccccc21` (centres undefined), for which the survivor count runs as follows: under setting [5], 2 of 6; under setting [4], 0 of 6.

`Clc1ccc(N=Cc2ccccc2)cc1`: the survivor count under setting [8] is listed as 3 of 6.

Take `CN(C)C=Nc1ccc2c3c(cccc13)CC2`: the survivor count (dose: 66.0 mg/kg/injection, schedule: Q01DX009 (ip), vehicle: Klucel (hydroxypropylcellulose) (HPC)) is given as 2 of 6 and the survivor count under setting [9] was 1 of 6.

Consider `CC#CCOCC(O)CCl` (centres undefined), for which the T/C (dose: 100.0 mg/kg/injection, schedule: Q04DX003 (ip), vehicle: saline) is 135 % of control. Also, the survivor count by setting is: (dose: 200.0 mg/kg/injection, schedule: Q04DX003 (ip), vehicle: saline) 3 of 6; (dose: 400.0 mg/kg/injection, schedule: Q01DX009 (ip), vehicle: saline) 0 of 6.

Take `NC(=O)n1cccn1`: the survivor count (dose: 125.0 mg/kg/injection, schedule: Q01DX010 (ip), vehicle: water) is on record as 6 of 6 and the survivor count (dose: 250.0 mg/kg/injection, schedule: Q01DX010 (ip), vehicle: water) is 3 of 6.

As to `Cc1ccc(S(=O)(=O)Nc2ccccc2)c(CC(O)(c2ccccc2)c2ccccc2)c1`, the survivor count under setting [5] is reported as 4 of 6.

For `C/C=C(/C)C(=O)O[C@H]1CCN2CC=C(COC(=O)[C@@](O)([C@H](C)OC)C(C)(C)O)[C@H]12`, the survivor count is 6 of 6 under setting [1] and 0 of 6 under setting [2].

For the molecule `CC(C)OC(CCC#N)c1ccc(Cl)cc1` (centres undefined), where the note is “dose: 200.0 mg/kg/injection, schedule: Q04DX003 (ip), vehicle: other”, the survivor count is 6 of 6.

With `O=C(CCCC(O)(C1CC1)C1CC1)C1CC1`, the survivor count under setting [8] was 1 of 6.

In the case of `Clc1ncnc2c1ncn2C1CCCO1` (centres undefined), the survivor count (dose: 400.0 mg/kg/injection, schedule: Q04DX003 (ip), vehicle: saline) is recorded as 1 of 6.

For `COc1ccc2[nH]c3c(C)c4cc[n+](C)cc4c(C)c3c2c1`, the survivor count (dose: 12.5 mg/kg/injection, schedule: Q01DX009 (ip), vehicle: saline with Tween-80) is 6 of 6 and the survivor count (dose: 25.0 mg/kg/injection, schedule: Q01DX009 (ip), vehicle: saline with Tween-80) is 6 of 6.

As for `O=C1CCCC(=O)N1CCCCCCN1C(=O)CCCC1=O`, the survivor count under setting [5] is listed as 3 of 6.

On to `Cc1cccc(C)c1N=CNc1c(C)cccc1C.[Cu+2]`, for which the survivor count under setting [10] was 1 of 6.

`Cn1c2c(c3ccccc3c1=O)C(=O)c1ccccc1-2`: the T/C was 126 % of control under setting [10] and 126 % of control under setting [4].

Consider `O=C(Nc1ccccc1F)Nc1ccccc1Cl`, for which the T/C is, setting by setting: (dose: 50.0 mg/kg/injection, schedule: Q01DX009 (ip), vehicle: Klucel (hydroxypropylcellulose) (HPC)) 125 % of control; under setting [9], 137 % of control; under setting [11], 127 % of control.

Turning to `CC(=O)OCC(=O)[C@@]1(O)CC[C@H]2[C@@H]3CCC4=CC(=O)CC[C@]4(C)[C@@]3(F)[C@@H](O)C[C@@]21C`, the survivor count runs as follows: (dose: 200.0 mg/kg/injection, schedule: Q01DX009 (sc), vehicle: steroid suspending solution) 6 of 6; (dose: 400.0 mg/kg/injection, schedule: Q04DX003 (sc), vehicle: steroid suspending solution) 6 of 6.

Turning to `COc1cc([C@@H]2c3cc4c(cc3[C@H](OC3OC5COC(c6ccccc6)OC5C(O)C3O)[C@H]3COC(=O)[C@H]23)OCO4)cc(OC)c1OC` (some centres undefined), the survivor count runs as follows: (dose: 100.0 mg/kg/injection, schedule: Q01DX010 (ip), vehicle: carboxymethylcellulose (CMC)) 6 of 6; under setting [6], 6 of 6; under setting [7], 0 of 6.

Take `CN1CCC(OC(N)=O)CC1`: where the note is “dose: 200.0 mg/kg/injection, schedule: Q01DX009 (ip), vehicle: saline”, the T/C was 127 % of control.

Turning to `OCCOc1c(Cl)c(Cl)c(Cl)c(Cl)c1Cl`, the survivor count (dose: 200.0 mg/kg/injection, schedule: Q04DX003 (ip), vehicle: saline with Tween-80) is 5 of 6.

Consider `O=C(Nc1cc(Cl)cc(Cl)c1)C(Cl)Cl`, for which the survivor count under setting [7] is recorded as 5 of 6.

Take `N#CC1(c2ccc(Cl)cc2)CC1`: the survivor count is, setting by setting: under setting [8], 4 of 6; under setting [12], 6 of 6.

Regarding `O=NN(CCCl)C(=O)N[C@@H]1CCCC[C@H]1NC(=O)N(CCCl)N=O`, the T/C was 127 % of control (dose: 1.0 mg/kg/injection, schedule: Q04DX003 (ip), vehicle: Klucel (hydroxypropylcellulose) (HPC)); 127 % of control (dose: 1.5 mg/kg/injection, schedule: Q01DX009 (ip), vehicle: Klucel (hydroxypropylcellulose) (HPC)); 131 % of control (dose: 2.0 mg/kg/injection, schedule: Q04DX003 (ip), vehicle: Klucel (hydroxypropylcellulose) (HPC)); 125 % of control (dose: 2.5 mg/kg/injection, schedule: Q04DX003 (ip), vehicle: Klucel (hydroxypropylcellulose) (HPC)); 145 % of control (dose: 3.0 mg/kg/injection, schedule: Q01DX009 (ip), vehicle: Klucel (hydroxypropylcellulose) (HPC)); 140 % of control (dose: 3.0 mg/kg/injection, schedule: Q04DX003 (ip), vehicle: Klucel (hydroxypropylcellulose) (HPC)). Besides, the T/C (dose: 4.0 mg/kg/injection, schedule: Q04DX003 (ip), vehicle: Klucel (hydroxypropylcellulose) (HPC)) is 141 % of control and the T/C (dose: 25.0 mg/kg/injection, schedule: Q01DX009 (ip), vehicle: Klucel (hydroxypropylcellulose) (HPC)) is 133 % of control. The survivor count by setting is: (dose: 37.5 mg/kg/injection, schedule: Q01DX009 (ip), vehicle: Klucel (hydroxypropylcellulose) (HPC)) 6 of 6; (dose: 50.0 mg/kg/injection, schedule: Q01DX009 (ip), vehicle: saline) 6 of 6; (dose: 75.0 mg/kg/injection, schedule: Q01DX009 (ip), vehicle: saline) 6 of 6; under setting [9], 6 of 6; under setting [11], 6 of 6; under setting [8], 3 of 6. Besides, the survivor count under setting [12] is reported as 6 of 6 and the survivor count (dose: 600.0 mg/kg/injection, schedule: Q04DX003 (ip), vehicle: Klucel (hydroxypropylcellulose) (HPC)) was 5 of 6.

`c1ccc(CCN2CCC3(CC2)COCc2ccccc23)cc1`: for the setting “dose: 100.0 mg/kg/injection, schedule: Q01DX001 (ip), vehicle: saline with Tween-80”, the survivor count is given as 3 of 6.
